From PubChem BioAssay AID1671190 (National Center for Advancing Translational Sciences (NCATS), 2021)
Values joined by “and” are separate entries in the source; they are usually repeats but may differ in a detail not shown here. Equal values may be shown once. The whole screen tested about 580,000 compounds, of which about 6,100 (1.1%) were called active. This list was built around the results that the source calls inconclusive (neither active nor inactive); the mix of calls is not that of the screen. Calls follow the shape of the dose curve; as a rule, active = well fitted inhibition curve with a large enough effect; inconclusive = small, poorly fitted or top-dose-only effect, or another doubt; inactive = no such curve, though single readings can be large or run the other way. Potencies beside an inconclusive call are fits to weak or partial responses and may not hold up.

Amino acid sequences for entries named in this document (tags omitted). A change or cut given only in a name is not applied to a line headed by its entry.
UniProt P18054: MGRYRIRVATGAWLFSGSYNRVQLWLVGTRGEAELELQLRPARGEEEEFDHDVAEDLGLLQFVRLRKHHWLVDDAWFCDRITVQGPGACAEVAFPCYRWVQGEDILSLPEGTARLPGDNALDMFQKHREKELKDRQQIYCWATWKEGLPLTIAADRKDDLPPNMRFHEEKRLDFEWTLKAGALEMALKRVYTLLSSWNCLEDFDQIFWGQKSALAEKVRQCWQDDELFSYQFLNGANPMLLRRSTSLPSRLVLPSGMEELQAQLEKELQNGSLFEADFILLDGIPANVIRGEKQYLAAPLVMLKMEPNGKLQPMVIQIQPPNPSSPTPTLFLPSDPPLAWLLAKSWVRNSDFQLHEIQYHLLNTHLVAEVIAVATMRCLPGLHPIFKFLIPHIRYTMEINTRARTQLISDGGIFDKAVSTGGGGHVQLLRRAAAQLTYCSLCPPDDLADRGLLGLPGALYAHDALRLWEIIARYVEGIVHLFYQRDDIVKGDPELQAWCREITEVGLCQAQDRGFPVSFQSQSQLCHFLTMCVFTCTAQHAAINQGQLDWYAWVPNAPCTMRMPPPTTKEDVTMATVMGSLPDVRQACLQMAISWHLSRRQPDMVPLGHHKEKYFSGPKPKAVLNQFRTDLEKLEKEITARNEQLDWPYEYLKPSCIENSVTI

The compounds below were run against Polyunsaturated fatty acid lipoxygenase ALOX12 (Homo sapiens) (UniProt P18054) (assay: Primary qHTS assay for inhibitors of human arachidonate 12S-lipoxygenase (ALOX12): Round 2). Settings: purified 12hLO, xylenol orange hydroperoxide absorbance; series mostly up to 108 µM.
In short: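 Hydroperoxide product was detected by ferrous iron/xylenol orange as the 573 to 405 nm absorbance ratio. Arachidonic acid at 40 uM (final) was turned over for 30 min at room temperature by 150 nM human 12hLO, pH 7.0 Hepes buffer, after 15 min compound preincubation.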
Potency is read from the fitted curve at half-maximal effect.

SMILES | Potency
Cc1nn(-c2ccc(Cl)nn2)c2c1C(c1ccc(OCC(N)=O)cc1)CC(=O)N2 (stereo unspecified) | inactive
CNC(=O)c1cccc(NC(=O)Cc2c[nH]c3ccccc23)c1 | inconclusive: 70.8 µM [inhibitor, partial curve, poor fit]
FC(F)(F)c1cc(-c2ccco2)nc(NCc2cccs2)n1 | inconclusive: 44.7 µM [inhibitor, partial curve, poor fit]
CC1(CCc2ccc3c(c2)OCO3)NCCc2c1[nH]c1ccccc21 (stereo unspecified) | inconclusive: 17.8 µM [inhibitor, partial curve, poor fit]
CC(=O)Nc1ccccc1SC(F)(F)F | inactive
CCn1c(SCC(=O)Nc2cccc(C(=O)O)c2)nnc1-c1cc2ccccc2o1 | inactive
O=C(COC(=O)Cc1ccc(-c2ccccc2)cc1)NCc1ccccc1 | inactive
CCOc1ccc(/C(O)=C2\C(=O)C(=O)N(Cc3ccco3)C2c2ccccc2)cc1Cl (stereo unspecified) | inconclusive: 50.1 µM [inhibitor, partial curve, poor fit]
CC(=O)c1ccc(NC(=O)O[C@@H]2CO[C@H]3[C@@H]2OC[C@@H]3NC(=O)Nc2ccccc2)cc1 | inactive
C[C@H](CO)N1C[C@H](C)[C@@H](CN(C)S(=O)(=O)c2cccs2)Oc2ccc(NC(=O)Nc3ccccc3)cc2C1=O | inconclusive: 126 µM [inhibitor, single point]
Cc1ccc(Cn2c(=O)c3ccccc3n3c(-c4cccc(O)c4)nnc23)cc1 | inconclusive: 112 µM [inhibitor, partial curve, poor fit]
c1ccc2cc(CNCCN3CCCC3)ccc2c1 | inconclusive: 4.47 µM [inhibitor, full curve, poor fit]
COC(=O)C1=C(C(=O)OC)[C@@H]2N(Cc3ccccc3)c3ccccc3[C@@]23C[C@@H](C(=O)OC)N(C(=O)NC(C)(C)C)C3=N1 | inconclusive: 100 µM [inhibitor, single point]
COC(=O)c1cc(-c2ccc(F)cc2)nc2onc(-c3ccco3)c12 | inconclusive: 11.2 µM [inhibitor, partial curve, poor fit]
COc1cc(C2c3sc(=O)[nH]c3SC3C(=O)N(c4ccc(Br)cc4)C(=O)C32)ccc1O (stereo unspecified) | active: 39.8 µM
O=C(CN1CCN(CCc2ccccc2)CC1)Nc1ccc2c(c1)CCC2 | inconclusive: 14.1 µM [inhibitor, partial curve, poor fit]
CC(CCc1ccccc1)NC(=O)Cc1ccc([N+](=O)[O-])cc1 (stereo unspecified) | inconclusive: 100 µM [inhibitor, partial curve, poor fit]
CCN(CC)CCOC(=O)c1ccc(NC(=O)Cn2ncc3c2-c2cc(C)ccc2OC3)cc1 | inconclusive: 44.7 µM [inhibitor, partial curve, poor fit]
CC(CC(=O)Nc1ccc(C(=O)NC2CC2)cc1)(C(=O)O)c1ccccc1 (stereo unspecified) | inactive
COc1ccc(NS(=O)(=O)c2ccc(C)c(C(=O)NC3CCN(Cc4ccccc4)CC3)c2)cc1 | inconclusive: 70.8 µM [inhibitor, partial curve, poor fit]
O=c1cc(-c2ccccc2Br)[nH]c2ccccc12 | inconclusive: 126 µM [inhibitor, single point]
O=C(c1ccc(Cl)cc1Cl)N1CCC(c2nc3ccccc3o2)CC1 | inactive

SMILES | Potency
Oc1ccc(Cl)cc1CNCC1CCCO1 (stereo unspecified) | inactive
COc1ccccc1N1CCN(C(=O)CSc2nnc(-c3ccoc3C)o2)CC1 | inconclusive: 112 µM [inhibitor, single point]
CCOC(=O)C(=O)N(C)c1c(CC)nc2c(OCc3ccc(OC(F)F)cc3)cccn12 | inconclusive: 44.7 µM [inhibitor, partial curve, poor fit]
CN(C)c1ccc(/C=N/N2CCN(c3ccccn3)CC2)cc1 | inactive
CCOC(=O)c1ccc(NC(=S)NC2CCCC2)cc1 | inactive
O=C(CSc1nc2nn(-c3ccccc3)c(=O)c-2c2n1CCCCC2)Nc1ccc(F)c(F)c1 | inactive
Cc1nc2sccn2c(=O)c1S(=O)(=O)Nc1cc(Cl)ccc1O | inconclusive: 89.1 µM [inhibitor, partial curve, poor fit]
CC1Cc2ccccc2N1c1ncnc2c1nnn2Cc1ccccc1Cl (stereo unspecified) | inactive
COC(C(=O)C(O)C(C)O)C1Cc2cc3cc(OC4CC(OC5CC(O)C(O)C(C)O5)C(O)C(C)O4)c(C)c(O)c3c(O)c2C(=O)C1OC1CC(OC2CC(OC3CC(O)C(OC)C(C)O3)C(O)C(C)O2)C(O)C(C)O1 (stereo unspecified) | inconclusive: 50.1 µM [inhibitor, partial curve, poor fit]
COc1cc(CNc2ccc3[nH]c(=O)[nH]c3c2)ccc1OCc1ccc(Cl)cc1 | inconclusive: 39.8 µM [inhibitor, partial curve, poor fit]
O=C(CC[C@@H]1CNC(=O)[C@@H]2C[C@H](NC(=O)c3ccccc3)CN12)NCc1ccc(F)cc1 | active: 31.6 µM
COc1ccc(-c2ocnc2C(=O)Nc2ccccc2OC)cc1 | inactive
COCCn1c(SCC(=O)Nc2c(C)n(C)n(-c3ccccc3)c2=O)nc2ccccc2c1=O | inconclusive: 50.1 µM [inhibitor, partial curve, poor fit]
O=C(NCc1cccc(F)c1)c1ccc(CN2C(=O)CSc3ncccc32)cc1 | inconclusive: 56.2 µM [inhibitor, partial curve, poor fit]
S=C(NCc1ccccc1)NCc1cccc(Cl)c1 | inconclusive: 39.8 µM [inhibitor, partial curve, poor fit]
COC1=C(N)C(=O)c2nc(C)ccc2C1=O | inconclusive: 44.7 µM [inhibitor, partial curve, poor fit]
Cc1ccc(CN(Cc2ccco2)C(=O)c2ccc(OCC(C)C)cc2)cc1 | inconclusive: 112 µM [inhibitor, partial curve, poor fit]
CCCCC(=O)Nc1sc2c(c1C#N)CCC(C(C)(C)C)C2 (stereo unspecified) | inconclusive: 7.08 µM [inhibitor, full curve]
CC1=C(C(=O)N(C)C)C(c2ccc(Cl)cc2)N2C(CC(=O)NCc3ccccc3)=CSC2=N1 (stereo unspecified) | inactive
COC(=O)N=Nc1c(O)n(Cc2ccccc2)c2ccccc12 | inactive
CCOCCCNCc1ccc(OC)cc1 | inconclusive: 1.78 µM [inhibitor, full curve, poor fit] and inconclusive: 178 nM [inhibitor, full curve, poor fit]
CCC(=O)N1N=C(c2ccc(NS(=O)(=O)c3ccc(C)cc3)cc2)CC1c1ccco1 (stereo unspecified) | inconclusive: 100 µM [inhibitor, single point]

At a glance, some entries already given:
SMILES | Potency
Cc1nc2sccn2c(=O)c1S(=O)(=O)Nc1cc(Cl)ccc1O | inconclusive: 89.1 µM [inhibitor, partial curve, poor fit]
CC1Cc2ccccc2N1c1ncnc2c1nnn2Cc1ccccc1Cl (stereo unspecified) | inactive

Further entries:

SMILES | Potency
Clc1ccc2nc(-c3ccncc3)cc(-c3ccccc3)c2c1 | inactive
CNC(=O)c1ccc(CNc2nc(CCN)nc3sc(C)c(C)c23)o1 | inactive
CC1=C(C(=O)Nc2ccc(C)cn2)C(c2cccc(Oc3ccccc3)c2)C2=C(CCCC2=O)N1 (stereo unspecified) | inactive
CSCCC1NC(=O)N(CC(=O)Nc2cccc3ccccc23)C1=O (stereo unspecified) | inconclusive: 31.6 µM [inhibitor, single point]
Nc1ccc(Nc2nc3ccccc3[nH]2)cc1 | inactive
COc1cccc2cc(-c3ccnc(N)n3)oc12 | inactive
COc1ccc(C(=O)N(C)C2CCc3ccccc32)cc1 (stereo unspecified) | inconclusive: 10 µM [inhibitor, full curve]
CC(C)(C)C(=O)NC(=S)Nc1ccccc1C(N)=O | inconclusive: 70.8 µM [inhibitor, partial curve, poor fit]
COc1ccc(N2CCN(Cc3csc(C)c3-c3ccc(C)cc3)CC2)cc1 | inconclusive: 50.1 µM [inhibitor, partial curve, poor fit]
CCOC(=O)N1CCN(C(=O)C2CCCN(Cc3nc(-c4ccc(Cl)cc4)oc3C)C2)CC1 (stereo unspecified) | inactive
CC(=O)Nc1ccc(S(=O)(=O)N2C[C@@H]3C[C@H](C2)c2c(-c4ccc(OC(F)(F)F)cc4)ccc(=O)n2C3)cc1 | inactive
Cc1ccc(Cn2cc(/C=C(\C#N)C(N)=O)c3ccccc32)cc1 | inactive
Cc1cc(=O)[nH]c(N/N=C/c2c(C)oc3ccccc23)n1 | inconclusive: 25.1 µM [inhibitor, partial curve, poor fit]
O=C(O)c1ccccc1Oc1ccccc1 | inconclusive: 25.1 µM [inhibitor, single point]
Cc1cccc(NS(=O)(=O)c2ccc3[nH]c4c(c3c2)CCCCCC4)c1 | inconclusive: 112 µM [inhibitor, single point]
CCOc1cccc2c1N[C@@H](c1ccc(C(=O)O)cc1)[C@H]1CC=C[C@@H]21 | inconclusive: 50.1 µM [inhibitor, partial curve, poor fit]
O=C(/C=C/c1ccc(N(c2ccccc2)c2ccccc2)cc1)c1cccc(C(F)(F)F)c1 | inconclusive: 31.6 µM [inhibitor, partial curve, poor fit]
COc1cc2cc(C3CC(c4ccco4)=NN3S(C)(=O)=O)c(Cl)nc2cc1OC (stereo unspecified) | inconclusive: 79.4 µM [inhibitor, partial curve, poor fit]
CCC(CC)NC(=O)CCC1CCN(C(=O)c2ccc(C)cc2)CC1 | inactive
Cc1cccc(OCCc2noc(C3CCN(C(=O)CN4CCCCCC4)C3)n2)c1 (stereo unspecified) | inactive
CCn1cc(/C=C(\NC(=O)c2ccc(OC)c(OC)c2)C(=O)N2CCN(C)CC2)c2ccccc21 | inactive
O=C(Nc1ccccc1)Nc1ccc([C@H]2OCC(=O)N(Cc3ccc(F)cc3)[C@@H]2CO)cc1 | inconclusive: 56.2 µM [inhibitor, partial curve, poor fit]

Part of the list above in order of molar mass, ascending.
SMILES | Potency
Cc1cc(=O)[nH]c(N/N=C/c2c(C)oc3ccccc23)n1 | inconclusive: 25.1 µM [inhibitor, partial curve, poor fit]
Clc1ccc2nc(-c3ccncc3)cc(-c3ccccc3)c2c1 | inactive
CSCCC1NC(=O)N(CC(=O)Nc2cccc3ccccc23)C1=O (stereo unspecified) | inconclusive: 31.6 µM [inhibitor, single point]
CCOC(=O)N1CCN(C(=O)C2CCCN(Cc3nc(-c4ccc(Cl)cc4)oc3C)C2)CC1 (stereo unspecified) | inactive
CCn1cc(/C=C(\NC(=O)c2ccc(OC)c(OC)c2)C(=O)N2CCN(C)CC2)c2ccccc21 | inactive
